These are yes or no findings as the source states them, for the method shown. In cells and extracts the contact can be indirect. Some results given as binding are weak or reduced against the parent protein; the word gives no strength.
What was measured:
[1] = target: T1, hypermethylated in cancer 1 (HIC1) (human) (UniProt Q14526); assay: co-IP
T1 sequence: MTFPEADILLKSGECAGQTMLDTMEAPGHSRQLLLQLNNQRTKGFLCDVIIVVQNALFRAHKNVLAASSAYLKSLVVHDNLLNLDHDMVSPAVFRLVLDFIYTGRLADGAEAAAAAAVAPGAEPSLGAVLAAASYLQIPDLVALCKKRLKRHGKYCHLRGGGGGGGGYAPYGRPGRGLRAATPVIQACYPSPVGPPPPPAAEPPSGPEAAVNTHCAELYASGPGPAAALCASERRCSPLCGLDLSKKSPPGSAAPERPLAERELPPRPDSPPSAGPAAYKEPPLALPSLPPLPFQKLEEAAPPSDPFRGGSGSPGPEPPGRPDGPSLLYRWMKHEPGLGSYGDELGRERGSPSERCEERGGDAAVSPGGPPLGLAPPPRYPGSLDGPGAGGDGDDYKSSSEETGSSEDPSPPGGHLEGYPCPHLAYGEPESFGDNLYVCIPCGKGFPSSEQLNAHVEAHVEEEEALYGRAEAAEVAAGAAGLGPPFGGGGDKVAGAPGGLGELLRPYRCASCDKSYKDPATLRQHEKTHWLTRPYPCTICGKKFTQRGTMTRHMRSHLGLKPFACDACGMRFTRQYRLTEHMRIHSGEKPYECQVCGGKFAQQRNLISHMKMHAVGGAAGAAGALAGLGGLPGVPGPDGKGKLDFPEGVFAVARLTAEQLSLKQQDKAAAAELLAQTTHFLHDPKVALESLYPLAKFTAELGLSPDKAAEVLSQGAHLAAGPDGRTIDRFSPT

The chains behind the UniProt entries cited, without tags or fusion partners.
UniProt Q9UKT9: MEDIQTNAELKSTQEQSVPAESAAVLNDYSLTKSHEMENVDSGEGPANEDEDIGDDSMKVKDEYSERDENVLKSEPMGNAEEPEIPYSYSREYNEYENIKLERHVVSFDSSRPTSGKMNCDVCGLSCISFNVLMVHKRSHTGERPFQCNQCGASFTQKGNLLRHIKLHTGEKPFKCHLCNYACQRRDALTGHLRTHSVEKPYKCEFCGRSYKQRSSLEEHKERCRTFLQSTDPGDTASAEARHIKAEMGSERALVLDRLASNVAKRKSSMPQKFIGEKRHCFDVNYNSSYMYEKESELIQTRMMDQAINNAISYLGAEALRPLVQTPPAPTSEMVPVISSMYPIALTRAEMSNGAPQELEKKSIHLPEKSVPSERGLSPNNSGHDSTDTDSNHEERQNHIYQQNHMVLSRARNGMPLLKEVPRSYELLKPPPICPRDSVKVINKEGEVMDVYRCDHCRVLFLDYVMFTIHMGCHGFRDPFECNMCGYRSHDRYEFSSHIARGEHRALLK
UniProt Q01196: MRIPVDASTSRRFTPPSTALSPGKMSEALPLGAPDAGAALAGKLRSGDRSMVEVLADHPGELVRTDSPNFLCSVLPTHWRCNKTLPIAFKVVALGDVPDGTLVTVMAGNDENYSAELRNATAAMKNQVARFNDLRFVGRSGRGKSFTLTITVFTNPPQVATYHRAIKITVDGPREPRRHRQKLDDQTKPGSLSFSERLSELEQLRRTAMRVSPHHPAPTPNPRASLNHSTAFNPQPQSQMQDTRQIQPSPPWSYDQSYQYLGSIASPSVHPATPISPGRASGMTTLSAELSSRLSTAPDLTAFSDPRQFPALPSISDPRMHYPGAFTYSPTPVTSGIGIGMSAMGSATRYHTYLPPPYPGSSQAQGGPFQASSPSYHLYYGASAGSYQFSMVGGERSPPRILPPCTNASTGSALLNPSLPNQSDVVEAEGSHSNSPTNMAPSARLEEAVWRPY

[2] = target: T1, hypermethylated in cancer 1 (HIC1) (human); assay: proximity ligation

Row | binding [1] | binding [2] | Substance
1 | binds | binds | IKZF3 (from UniProt Q9UKT9 1-509)
2 | binds | binds | Runt-related transcription factor 1 (RUNX1) (from UniProt Q01196 1-453)
